In patent US7964635B2, “Amidoacetonitrile derivatives” (Novartis AG, priority 2003, dated 2011):
“And” between values parts separate entries of the source, which are not always exact repeats. Equal values may be shown once. The name of at least one read-out is uncertain.

Tested on: Haemonchus contortus
Assay: In-vivo test on Haemonchus contortus on Mongolian gerbils using peroral application
Conditions: 3.2 mg/kg peroral, worm count 3 days after treatment
Procedure: 1. In-Vivo Test on Trichostrongylus colubriformis and Haemonchus contortus on Mongolian Gerbils (Meriones uncuiculatus) Using Peroral Application Six to eight week old Mongolian gerbils are infected through a stomach tube with ca. 2000 third instar larvae each of T. colubriformis and H. contortus. 6 days after infection, the gerbils are treated by peroral application with the test compounds, dissolved in a mixture of 2 parts DMSO and 1 part polyethylene glycol (PEG 400), in quantities of 100, 32 and 10-0.1 mg/kg. On day 9 (3 days after treatment), when most of the H. contortus that are still present are late 4th instar larvae and most of the T. colubriformis are immature adults, the gerbils are killed in order to count the worms. The efficacy is calculated as the % reduction of the number of worms in each gerbil, compared with the geometric average of number of worms from 6 infected and untreated gerbils. The following tables B1, B2 and B3 show a comparison of a series of the compounds of tables 1, 2 and 3 with structurally most closely related ones known from literature, proving the astounding efficacy increase in this test over the state of the art (Hc: Haemonchus contortus; Tc: Trichostrongylus colubriformis): […]

CC(C#N)(COc1ccc(Cl)cc1Cl)NC(=O)c1ccc(OC(F)(F)F)cc1 (stereo not shown) [No. 1.119, reference compound]
Hc: efficacy, % reduction of the number of worms: 3.2 mg/kg; Hc: 28% and 3.2 mg/kg; Hc: 0%
